Values of other authors as cited in US5783575A, “Antagonists, their preparation and use” (Novo Nordisk A/S, priority 1994, dated 1998).
At least one structure is not confirmed: it was looked up by name or label, or the drawing left a doubt.

Legend:
[1] = system: metabotropic glutamate receptor; settings: selective ionotropic glutamate receptor agonists; cited from earlier work
mGluR4 receptor = settings: Thomsen et al. 1992; cited from earlier work

Compound: Cc1onc(O)c1CC(N)C(=O)O (stereo not drawn) [AMPA, alpha-amino-3-hydroxy-5-methyl-isoxazole-4-propionate]
- effect on metabotropic glutamate receptors [1]: little effect

Compound: N[C@@H](CCP(=O)(O)O)C(=O)O [L-AP4, L-2-amino-4-phosphonobutyrate]
- agonism at the mGluR4 receptor (mGluR4 receptor): agonist

Compound: CN[C@H](CC(=O)O)C(=O)O [NMDA, N-methyl-D-aspartate]
- effect on metabotropic glutamate receptors [1]: little effect
